Laboratory results from paper PMC10163288.
The other results are listed elsewhere or left out.

B1: il2ra_site1_1z92_normal_mot_54e474eed2d0515e81978198f0f96ec2_0001_000000202_0001_15_30_H_._9e622f7d73aa0ff91040b48e8c7f7504_0001_1_af2_0001_0000100005_0000001_0 … (protein)
chain: DEEEAEELLREILKEEGSEQLLERLLRRAEEEMGDPRLALLALIRVALYLTGDPRLEEALELVKK
B2: il2ra_site1_2b5i_normal_mot_HHH_b2_04910_000000118_0001_1_19_H_._HHH_b2_02427_0001_0000500041_0000001_0_af2pred_dldesign_0_af2pred (protein)
chain: SSSSSDAAKVRELALEAERLFKAGKEEEAKKVLEEALKLAEELGSTSWIKFINLALKQLESSSSS
B3: il2ra_site1_1z92_normal_mot_HHH_b2_00124_000000173_0001_1_17_H_._HHH_b2_00888_0001_0000200026_0000001_0_af2pred_0001_af2pred (protein)
chain: SSSDEEARRLEHEVAELLDEAEERGDEELLREILEEALRLAEELNDKRLVKYIRFLLRRLNSSSS
B4: il2ra_site2_3nfp_normal_mot_HHH_b1_04756_000000059_0001_41_55_H_._HHH_b1_00819_0001_0000300036_0000001_0 (protein)
chain: SSSSDEEEKRVEELLEEAEELLRRGNPEEAQRVLAEATHLVFERRNVELYAELQRLALLVYSSSS
B5: il2ra_site2_3nfp_sap_20_mot_HHH_b2_08245_000000023_0001_41_55_H_._HHH_b1_00950_0001_0000400017_0000001_1_0001 (protein)
chain: SSSSKAEEYLRVALELLKQLKEQGSEEAARRVARAALAAAEDQNDEELFEEIREILEELESSSSS
B6: il2ra_site2_3nfp_sap_18_mot_HHH_b2_04004_af2_000000015_0001_21_38_H_._HHH_b2_01619_0001_0000500030_0000001_0_0001 (protein)
chain: SSSSSEEVEEAEELAEEVLKILKERGDERAFKYVEAVLRLLREFQDPRLAKKLREMAETVSSSSS
B7: il2ra_site1_3nfp_normal_mot_305f2cde7908e03ad37cbc015c4ad608_0001_000000190_0001_1_13_H_._051c0c936a156ad947a69d9f7fa35b99_0001_0001_0000200005_0000001_1_af2pre … (protein)
chain: SALEEILEEARERGDEEVVRVAELLLEAERTRDPELSREALKLVARLLLKGNPLARELAKLMQNH
B8: il2ra_site2_2erj_sap_26_mot_HHH_b1_06697_000000025_0001_41_54_H_._HHH_b2_06359_0001_0000700009_0000001_0_0001 (protein)
chain: SSSSSDEVAELLARALEAAKEGDEEKAKELVERAREVAEELGSPFLERYVEFAREDIERYFSSSS
B9: il2ra_site1_3nfp_sap_13_mot_HHH_b1_07204_af2_000000238_0001_41_55_H_._HHH_b1_08000_0001_0000400027_0000001_0_0001 (protein)
chain: SSSSSEEEERVEELLEEAERLVREGDWEEARKVFEEAMRVAAKAANDELDRLILEWLQELSSSSS
B10: il2ra_site2_2erj_normal_mot_HHH_b2_08364_000000146_0001_1_19_H_._HEEHE_1265_af2_0001_0000100004_0000001_1_af2pred_0001_1_af2pred_swapped (protein)
chain: SDETLVEVNIEAAARLAGIPSIEVEVSNGTIEVTIDGNDEAARYVEELARHVAEQFGLEVEVEVE
B11: il2ra_site1_1z92_sap_19_mot_ac4c3ba4b0f318db3a21ad0f1c8264ff_0001_af2_000000096_0001_18_32_H_._57f16503c3ed7559aa135d11549c9b80_0001_0001_0000100003_0000001_0_0 … (protein)
chain: SVLEILERLAEEKNDPRIRQVFYALEQLTRLTGDPELAIKNLELALRRLGDPELLRILEEAEELT
B12: il2ra_site2_3nfp_normal_mot_HHH_b2_06897_000000042_0001_40_57_H_._HHH_b1_06060_af2_0001_0000200014_0000001_1 (protein)
chain: SSSSSEEVKELLEELEELLKKNDEEQFRELVRRISNIVYELNDHEAFAILNRLVEEFRKRQSSSS
B13: il2ra_site1_3nfp_normal_mot_HHH_b1_03014_af2_000000204_0001_43_57_H_._HHH_b1_07134_0001_0000500012_0000001_1_af2pred_0001_af2pred_1_swapped (protein)
chain: SSSSDRAERFLEMLVKLLKSLLELGNEKAFERVFRSAESAAERANDPEILEELRELYREFNSSSS
B14: il2ra_site1_2b5i_normal_mot_HHH_b2_04910_000000118_0001_1_19_H_._HHH_b2_03843_0001_0000200013_0000001_0 (protein)
chain: SSSSSESSRRAQELFHEADRLDREGNPEEARKILEEAEEVAEEGNNRSLLRSIRAALRQASSSSS
B15: il2ra_site1_1z92_normal_mot_HHH_b2_04375_000000267_0001_42_56_H_._698813b5b2907ad46adb08327c7f7b71_0001_0001_0000100012_0000001_0 (protein)
chain: DVERDLRAVRKLGVPPENVLKAVLQALEVLLGDPEQAKEVLREVLEELLGDPEEAERLVEEAEKR
B16: il2ra_site2_2erj_sap_27_mot_HHH_b1_00004_000000238_0001_1_17_H_._HHH_b1_07428_0001_0000600005_0000001_0_0001 (protein)
chain: SSSSDTEEEAEKLFERLEELLEEGDEQAVNEVLTKLVRLAKEKDDPEAARLVWEIMRKNDSSSSS
B17: il2ra_site2_3nfp_sap_20_mot_HHH_b1_02962_000000041_0001_43_56_H_._HHH_b1_06420_0001_0000200007_0000001_0_0001 (protein)
chain: SVEEAIEEILERLGDPLVRLLLELLEELKERGTLTPERERALLYLAIALELGNPLAEKAVEDARS
B18: il2ra_site2_3nfp_sap_19_mot_HHH_b2_04619_000000299_0001_40_56_H_._ems_3hM_285_0001_0000300025_0000001_0_0001_af2pred_0001_1_af2pred_swapped (protein)
chain: SSSSSSDTRERVEELLEEAEQIDDPEEVDRLLLKAIYLAARAGDEEAIKLVEEVLKELSSSSSSS

Target: il2ra, P01589
Experiment: yeast display titration

Apparent Kd, inactive:
B1 > 1460 nM, B2 no binding seen, B3 no binding seen, B4 no binding seen, B5 no binding seen, B6 no binding seen, B7 no binding seen, B8 no binding seen, B9 no binding seen, B10 no binding seen, B11 no binding seen, B12 no binding seen, B13 no binding seen, B14 no binding seen, B15 no binding seen, B16 no binding seen, B17 no binding seen, B18 no binding seen
